These are yes or no findings as the source states them, for the method shown. Some binding calls cover weakened binding; strength is not graded here. Where a sequence is shown, tags or fusion partners need not be part of it.

The test has as its target T1, Ssl2 (Saccharomyces cerevisiae (endogenous, purified from yeast)) (UniProt Q00578).
T1 sequence: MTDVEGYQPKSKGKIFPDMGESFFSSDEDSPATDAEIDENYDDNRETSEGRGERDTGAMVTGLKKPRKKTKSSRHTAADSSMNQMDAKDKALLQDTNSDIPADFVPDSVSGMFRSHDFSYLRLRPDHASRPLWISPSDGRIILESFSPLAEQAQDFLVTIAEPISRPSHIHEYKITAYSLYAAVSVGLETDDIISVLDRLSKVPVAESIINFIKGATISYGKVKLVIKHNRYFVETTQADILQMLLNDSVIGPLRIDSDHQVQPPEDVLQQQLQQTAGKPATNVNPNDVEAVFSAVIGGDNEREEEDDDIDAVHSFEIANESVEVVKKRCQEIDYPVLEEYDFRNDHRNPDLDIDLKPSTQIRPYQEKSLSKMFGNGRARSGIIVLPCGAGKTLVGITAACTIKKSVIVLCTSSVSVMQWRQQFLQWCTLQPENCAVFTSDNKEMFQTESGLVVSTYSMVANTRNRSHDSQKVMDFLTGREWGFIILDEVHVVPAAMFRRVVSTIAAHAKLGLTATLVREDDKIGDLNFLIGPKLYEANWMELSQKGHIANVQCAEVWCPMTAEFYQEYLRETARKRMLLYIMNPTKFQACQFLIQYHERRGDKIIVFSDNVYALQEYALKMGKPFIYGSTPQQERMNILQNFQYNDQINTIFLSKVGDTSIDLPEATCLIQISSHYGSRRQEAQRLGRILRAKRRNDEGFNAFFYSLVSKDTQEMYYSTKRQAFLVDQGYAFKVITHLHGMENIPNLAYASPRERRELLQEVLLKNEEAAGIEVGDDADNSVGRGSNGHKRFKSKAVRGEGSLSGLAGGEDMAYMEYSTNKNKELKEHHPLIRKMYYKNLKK
The test can be described thus: cryo-EM structure.

B1: Tfb5 (natural protein)
chain: MARARKGALVQCDPSIKALILQIDAKMSDIVLEELDDTHLLVNPSKVEFVKHELNRLLSKNIYNPMDEEENQ
In the case of B1, the binding entry was “binds weakly”.

The record behind these values is paper doi:10.1101/2021.01.14.426755 (bioRxiv, 2021).
